No constants are given. Whether binding was seen depends on the method and setting. A result given as binding can be weak or reduced; the word gives no strength. Tags and fused reporters may be left off the sequences shown. For some assays here: In cells and extracts the contact can be indirect.

In one assay the target is T1, OsNF-YB1 fused to the GAL4 binding domain (pGBKT7 bait) (rice (Oryza sativa)) (UniProt Q6Z348).
T1 sequence: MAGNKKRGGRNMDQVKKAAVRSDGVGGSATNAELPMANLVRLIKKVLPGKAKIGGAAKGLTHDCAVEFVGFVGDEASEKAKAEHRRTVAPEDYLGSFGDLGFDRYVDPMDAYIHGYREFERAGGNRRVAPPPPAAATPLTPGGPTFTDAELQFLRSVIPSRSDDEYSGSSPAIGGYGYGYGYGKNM
The assay can be described thus: two-hybrid; yeast AH109; OsNF-YB1 in pGBKT7 (BD) as bait, NF-YCs or ERFs in pGADT7 (AD) as prey; growth on SD/-Leu/-Trp/-His/-Ade.
Consider “OsERF#072 fused to the activation domain (pGADT7 prey) (rice (Oryza sativa))”, for which the binding entry is “no binding”.

As to “OsERF#074 fused to the activation domain (pGADT7 prey) (rice (Oryza sativa))”, the binding result is on record as “no binding”.

Take “OsERF#114 fused to the activation domain (pGADT7 prey) (rice (Oryza sativa))”: the binding result was “no binding”.

“OsERF#115 fused to the activation domain (pGADT7 prey) (rice (Oryza sativa))”: the binding entry was “binds”.

For “OsNF-YC8 in pGADT7 prey plasmid (rice (Oryza sativa))”, the binding result was “binds”.

As to “OsNF-YC9 in pGADT7 prey plasmid (rice (Oryza sativa))”, the binding entry is “binds”.

Turning to “OsNF-YC10 in pGADT7 prey plasmid (rice (Oryza sativa))”, the binding result is reported as “binds”.

Take “OsNF-YC11 in pGADT7 prey plasmid (rice (Oryza sativa))”: the binding entry is reported as “binds”.

Turning to “OsNF-YC12 in pGADT7 prey plasmid (rice (Oryza sativa))”, the binding result is recorded as “binds”.

Another assay deals with T2, OsNF-YB1-GFP (rice (Oryza sativa)) (UniProt Q6Z348).
T2 sequence: T1 sequence
The assay can be described thus: co-IP; tobacco leaves co-transformed with OsNF-YB1-GFP and OsNF-YC11-mCherry or OsNF-YC12-mCherry; lysate in 50 mM Tris-HCl pH 7.5, 1 mM EDTA, 150 mM NaCl, 10% glycerol, 1% NP-40; IP with anti-GFP on Dynabeads Protein G, blot with anti-GFP and anti-mCherry.
As to OsNF-YC11-mCherry (rice (Oryza sativa)), the binding result is on record as “binds”.

On to OsNF-YC12-mCherry (rice (Oryza sativa)), for which the binding result is “binds”.

The values above are taken from publication PMC5181583.
